Data from patent US12690590B2, “Phenyl compound and plant disease control method” (SUMITOMO CHEMICAL COMPANY, LIMITED, priority 2020, dated 2026).
Some of these results come from one statement about several compounds together.

Assays:
Septoria tritici [1] = assay: Test Example 1: test for controlling wheat leaf blotch, growth in titer plate (PDB broth); type: cell-based; conditions: 1 μL of 1500 ppm dimethylsulfoxide solution + 150 μL PDB broth with spores, 96 well, 18° C., 5 days, absorbance at 550 nm
Colletotrichum truncatum = assay: Test Example 2: test for controlling soybean anthracnose, growth in titer plate (PDB broth); type: cell-based; conditions: 1 μL of 1500 ppm dimethylsulfoxide solution + 150 μL PDB broth with spores, 96 well, 18° C., 4 days, absorbance at 550 nm
Septoria tritici [2] = assay: Test Example 4: test for controlling wheat leaf blotch, foliar spray before inoculation; type: in vivo; conditions: 200 ppm foliar spray, wheat (Apogee), inoculated 4 days after spraying
Phakopsora pachyrhizi = assay: Test Example 11: test for controlling soybean rust, spore germination on agar in petri dish; type: cell-based; conditions: prescribed concentration 10 ppm, 23° C., 1 day

| SMILES | degree of growth of Septoria tritici in the treated area relative to the degree of growth in the non-treated area (Septoria tritici [1]) [%] | degree of growth of Colletotrichum truncatum in the treated area relative to the degree of growth in the non-treated area (Colletotrichum truncatum) [%] | lesion area in the treated wheat relative to the lesion area in the non-treated wheat (Septoria tritici [2]) [%] | number of germinated spores relative to the number of germinated spores in the non-treated plastic petri dish (Phakopsora pachyrhizi) [%] |
| --- | --- | --- | --- | --- |
| CCCCCS(=O)(=O)c1ccn(-c2ccc(Cl)cc2)n1 [IIA-117] | ≤ 50 | ≤ 50 | – | – |
| Clc1ccc(Sc2ccn(-c3ccc(Cl)cc3)n2)cc1 [IA-6] | – | – | ≤ 30 | – |
| CCS(=O)(=O)c1nc(-c2ccc(Br)c(F)c2)cs1 [IIC-26] | ≤ 50 | ≤ 50 | – | ≤ 30 |
| CCSc1ccn(-c2cc(F)c(F)c(F)c2)n1 [IIA-34] | ≤ 50 | ≤ 50 | – | – |
| CSc1ccn(-c2ccc(Cl)cc2)n1 [IA-1] | ≤ 50 | ≤ 50 | – | – |
| CCCS(=O)(=O)c1ccn(-c2ccc(Cl)cc2)n1 [IIA-104] | ≤ 50 | – | ≤ 30 | ≤ 30 |
| CCS(=O)(=O)c1ccn(-c2ccc(Cl)c(Cl)c2)n1 [IIA-79] | – | – | ≤ 30 | ≤ 30 |
| CCSc1ccn(-c2ccc(C)cc2)n1 [IIA-62] | – | – | ≤ 30 | – |
| CCSc1ccn(-c2ccccc2OC)n1 [IIA-13] | ≤ 50 | ≤ 50 | – | – |
| CCS(=O)(=O)c1ccn(-c2ccc(Cl)c(F)c2)n1 [IIA-85] | – | – | ≤ 30 | ≤ 30 |
| Clc1ccc(-n2ccc(SC3CCCCC3)n2)cc1 [IIA-55] | – | ≤ 50 | ≤ 30 | – |
| CCS(=O)(=O)c1ccn(-c2cccc(-c3ccccc3)c2)n1 [IIA-83] | ≤ 50 | ≤ 50 | – | – |
| CCSc1ccn(-c2ccc(OC(F)(F)F)cc2)n1 [IIA-7] | ≤ 50 | ≤ 50 | – | – |
| CCCS(=O)(=O)c1csc(-c2ccc(Cl)cc2)n1 [IIB-4] | – | – | ≤ 30 | ≤ 30 |
| COc1ccccc1[S+]([O-])c1ccn(-c2ccc(Cl)cc2)n1 (centres unmarked) [IA-9] | – | – | ≤ 30 | – |
| C=CCSc1ccn(-c2ccc(Cl)cc2)n1 [IIA-56] | ≤ 50 | ≤ 50 | – | ≤ 30 |
| CCSc1ccn(-c2ccc(C)cc2)n1 [IIA-1] | ≤ 50 | ≤ 50 | – | ≤ 30 |

| SMILES | degree of growth of Septoria tritici in the treated area relative to the degree of growth in the non-treated area (Septoria tritici [1]) [%] | degree of growth of Colletotrichum truncatum in the treated area relative to the degree of growth in the non-treated area (Colletotrichum truncatum) [%] | lesion area in the treated wheat relative to the lesion area in the non-treated wheat (Septoria tritici [2]) [%] | number of germinated spores relative to the number of germinated spores in the non-treated plastic petri dish (Phakopsora pachyrhizi) [%] |
| --- | --- | --- | --- | --- |
| CCSc1ccn(-c2ccc(I)cc2)n1 [IIA-9] | ≤ 50 | ≤ 50 | – | ≤ 30 |
| COc1ccc(-n2ccc(Sc3ccccc3)n2)cc1 [IA-4] | ≤ 50 | – | ≤ 30 | – |
| CCCS(=O)(=O)c1ccn(-c2ccc(Cl)c(F)c2)n1 [IIA-108] | – | – | ≤ 30 | ≤ 30 |
| [O-][S+](c1ccn(-c2ccc(Cl)cc2)n1)c1ccccc1Cl (centres unmarked) [IA-10] | – | – | ≤ 30 | – |
| CCS(=O)(=O)c1ccn(-c2ccc(Br)c(F)c2)n1 [IIA-86] | – | – | ≤ 30 | ≤ 30 |
| CCCSc1ccn(-c2ccc(C)c(F)c2)n1 [IIA-43] | ≤ 50 | ≤ 50 | – | ≤ 30 |
| CCSc1ccn(-c2ccc(C#N)cc2)n1 [IIA-6] | ≤ 50 | ≤ 50 | – | – |
| CCS(=O)(=O)c1ccn(-c2ccc(OC)cc2)n1 [IIA-67] | – | – | ≤ 30 | – |
| CCCS(=O)(=O)c1nc(-c2ccc(Cl)cc2)cs1 [IIC-4] | ≤ 50 | ≤ 50 | – | ≤ 30 |
| CCSc1ccn(-c2cccc(OC)c2)n1 [IIA-11] | ≤ 50 | ≤ 50 | – | – |
| O=S(=O)(CCC(F)=C(F)F)c1nc(-c2cccc(F)c2)cs1 [IIC-23] | ≤ 50 | ≤ 50 | – | – |
| O=S(=O)(c1ccn(-c2ccc(Cl)cc2)n1)C1CCCCC1 [IIA-119] | ≤ 50 | ≤ 50 | – | – |
| CCSc1ccn(-c2ccc(C)c(F)c2)n1 [IIA-31] | ≤ 50 | ≤ 50 | – | ≤ 30 |
| CC(C)CCS(=O)(=O)c1ccn(-c2ccc(Cl)cc2)n1 [IIA-118] | ≤ 50 | ≤ 50 | – | – |
| COc1ccccc1Sc1ccn(-c2ccc(Cl)cc2)n1 [IA-7] | – | – | ≤ 30 | – |
| CC(C)CS(=O)(=O)c1ccn(-c2ccc(Cl)cc2)n1 [IIA-116] | ≤ 50 | ≤ 50 | – | – |
| Clc1ccc(-n2ccc(Sc3ccccn3)n2)cc1 [IIA-57] | ≤ 50 | – | ≤ 30 | ≤ 30 |
